Literature values in US20070015231A1, “Assay for protein tyrosine phosphatases” (CEPTYR, Inc., priority 2000, published 2007).
Part of at least one peptide drawing is inferred or uncertain, most often the ends. Square brackets hold non-standard residues; d marks the D form. Peptide text beside a SMILES is read from it. * marks the point of attachment. 5FAM = O=C1OC2(c3ccc(O)cc3Oc3cc(O)ccc32)c2ccc(C(=O)*)cc21; pY = N[C@@H](Cc1ccc(OP(=O)(O)O)cc1)C(=O)O

Target: T1, PTP1B (Rattus norvegicus, UniProt P20417)
T1 sequence (P20417 1-322 limits assumed): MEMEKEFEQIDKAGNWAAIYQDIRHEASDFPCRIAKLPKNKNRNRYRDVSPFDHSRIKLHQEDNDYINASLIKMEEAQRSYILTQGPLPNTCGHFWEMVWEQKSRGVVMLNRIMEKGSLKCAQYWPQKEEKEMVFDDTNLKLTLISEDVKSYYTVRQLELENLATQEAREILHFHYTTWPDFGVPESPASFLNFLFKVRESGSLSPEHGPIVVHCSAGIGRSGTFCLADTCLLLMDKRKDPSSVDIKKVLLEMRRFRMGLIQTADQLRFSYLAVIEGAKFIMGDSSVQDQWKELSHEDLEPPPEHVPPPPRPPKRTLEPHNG
Conditions: EGF receptor Tyr992 hexapeptide substrate; cited from earlier work

For CC(C)C[C@H](NC(=O)[C@H](Cc1ccc(OP(=O)(O)O)cc1)NC(=O)[C@H](CCC(=O)O)NC(=O)[C@H](CC(=O)O)NC(=O)[C@H](C)NC(=O)[C@H](CC(=O)O)NC(=O)c1ccc2c(c1)C(=O)OC21c2ccc(O)cc2Oc2cc(O)ccc21)C(N)=O [F-ERP-P, D-A-D-E-pY-L-NH2] (5FAM-DADE[pY]L-NH2), the kcat is given as 72 s⁻¹.
